# Drug screen on melanoma cell lines: apoptosis marker

Source: doi:10.1371/journal.pone.0140310, primary screening data, rounded.

First drug in all entries: everolimus, 0.1 µM, CO[C@H]1C[C@@H]2CC[C@@H](C)[C@@](O)(O2)C(=O)C(=O)N2CCCC[C@H]2C(=O)O[C@H]([C@H](C)C[C@@H]2CC[C@@H](OCCO)[C@H](OC)C2)CC(=O)[C@H](C)/C=C(\C)[C@@H](O)[C@@H](OC)C(=O)[C@H](C)C[C@H](C)/C=C/C=C/C=C/1C

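Human melanoma cell lines in 1,536-well plates were treated with a pair of drugs for 72 h, then fixed, stained and imaged. Values are the share of nuclei positive for cleaved PARP as a percentage of the same share in the DMSO control: 100 is the control level, higher means more apoptosis. Every drug was used at one fixed concentration, the higher of two screened. These are primary screening values without error estimates. Basal and induced levels differ widely between cell lines.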 This is part of the screen, not chosen by result.

Partner: COc1ccc(COc2ccc(Cc3cnc(N)nc3N)cc2OC)cc1 at 5 µM
G-361: 357
C32: 90.7

Partner: Oc1cc(-c2nc(-c3ccccc3)[nH]c2-c2ccncc2)ccc1Cl at 1 µM
G-361: 333
C32: 131

Partner: NC1(c2ccc(-c3nc4ccn5c(=O)[nH]nc5c4cc3-c3ccccc3)cc2)CCC1 at 2 µM
G-361: 307
C32: 215

Partner: Cn1cncc1[C@@](N)(c1ccc(Cl)cc1)c1ccc2c(c1)c(-c1cccc(Cl)c1)cc(=O)n2C at 0.05 µM
G-361: 260
C32: 86.5

Partner: C[C@]12O[C@H](C[C@]1(O)CO)n1c3ccccc3c3c4c(c5c6ccccc6n2c5c31)CNC4=O at 0.02 µM
G-361: 397
C32: 136

Partner: O=C(Nc1cc(C(F)(F)F)cc(C(F)(F)F)c1)c1cc(Cl)ccc1O at 0.08 µM
G-361: 199
C32: 559

Partner: CN(NC(=O)CC(=O)NN(C)C(=S)c1ccccc1)C(=S)c1ccccc1 at 0.03 µM
G-361: 659
C32: 2270

Partner: CCCCCCCCCCCCCCCCCCOP(=O)([O-])OC1CC[N+](C)(C)CC1 at 2 µM
G-361: 142
C32: 179

Partner: CNC(=O)c1cc(Oc2ccc(NC(=O)Nc3ccc(Cl)c(C(F)(F)F)c3)cc2)ccn1 at 2 µM
G-361: 154
C32: 102

Partner: C=CCn1c(=O)c2cnc(Nc3ccc(N4CCN(C)CC4)cc3)nc2n1-c1cccc(C(C)(C)O)n1 at 0.1 µM
G-361: 157
C32: 373

Partner: O=C(O)c1ccc2c(c1)nc(Nc1cccc(Cl)c1)c1ccncc12 at 2 µM
G-361: 347
C32: 281

Partner: C/C(O)=C(\C#N)C(=O)Nc1cc(Br)ccc1Br at 10 µM
G-361: 220
C32: 70.3

Partner: C=CCNC1=C2C[C@@H](C)C[C@H](OC)[C@H](O)[C@@H](C)/C=C(\C)[C@H](OC(N)=O)[C@@H](OC)/C=C\C=C(/C)C(=O)NC(=CC1=O)C2=O at 0.01 µM
G-361: 192
C32: 390

Partner: CC(C)C[C@H](NC(=O)[C@H](Cc1ccccc1)NC(=O)c1cnccn1)B(O)O at 0.005 µM
G-361: 6900
C32: 1020

Partner: NC(=O)c1ccc(N(C(N)=O)c2c(F)cccc2F)nc1-c1ccc(F)cc1F at 2 µM
G-361: 93.1
C32: 292

Partner: Cc1nc(Nc2ncc(C(=O)Nc3c(C)cccc3Cl)s2)cc(N2CCN(CCO)CC2)n1 at 0.02 µM
G-361: 44.2
C32: 1070

Partner: O=C1NC(=O)/C(=C/c2ccc(-c3ccc(F)cc3O)o2)S1 at 5 µM
G-361: 144
C32: 98.9

Partner: CN1CCN(c2ccc3nc(-c4c(N)c5c(F)cccc5[nH]c4=O)[nH]c3c2)CC1 at 0.5 µM
G-361: 405
C32: 238

Partner: COc1cc(Nc2ncc(F)c(Nc3ccc4c(n3)NC(=O)C(C)(C)O4)n2)cc(OC)c1OC at 2 µM
G-361: 248
C32: 125

Partner: COc1ccc(C2=N[C@@H](c3ccc(Cl)cc3)[C@@H](c3ccc(Cl)cc3)N2C(=O)N2CCNC(=O)C2)c(OC(C)C)c1 at 0.5 µM
G-361: 152
C32: 358

Partner: CC[C@]1(O)C[C@H]2CN(CCc3c([nH]c4ccccc34)[C@@](C(=O)OC)(c3cc4c(cc3OC)N(C=O)[C@H]3[C@@](O)(C(=O)OC)[C@H](OC(C)=O)[C@]5(CC)C=CCN6CC[C@]43[C@@H]65)C2)C1 at 0.0005 µM
G-361: 231
C32: 277

For reference, 2 entries once more:

| Partner | G-361 | C32 |
|---|---|---|
| C/C(O)=C(\C#N)C(=O)Nc1cc(Br)ccc1Br at 10 µM | 220 | 70.3 |
| CC(C)C[C@H](NC(=O)[C@H](Cc1ccccc1)NC(=O)c1cnccn1)B(O)O at 0.005 µM | 6900 | 1020 |